From PubChem BioAssay (Tox21)
“And” between values parts separate entries of the source, which are not always exact repeats. Identical values can stand only once. The inconclusive results got no clear call from the source; some entries with a clear call stand among them for comparison. For some of these results: Potencies of inconclusive entries are doubtful fits and often do not repeat. The source made the active and inactive calls. Unless noted, calls follow the shape of the full dose curve.

Protein sequences, listed by entry. Tags and fused reporters are not part of them. Lines headed by an entry give the natural chain unless they say otherwise; changes in a name come on top.
UniProt P14416, whole entry, looked up: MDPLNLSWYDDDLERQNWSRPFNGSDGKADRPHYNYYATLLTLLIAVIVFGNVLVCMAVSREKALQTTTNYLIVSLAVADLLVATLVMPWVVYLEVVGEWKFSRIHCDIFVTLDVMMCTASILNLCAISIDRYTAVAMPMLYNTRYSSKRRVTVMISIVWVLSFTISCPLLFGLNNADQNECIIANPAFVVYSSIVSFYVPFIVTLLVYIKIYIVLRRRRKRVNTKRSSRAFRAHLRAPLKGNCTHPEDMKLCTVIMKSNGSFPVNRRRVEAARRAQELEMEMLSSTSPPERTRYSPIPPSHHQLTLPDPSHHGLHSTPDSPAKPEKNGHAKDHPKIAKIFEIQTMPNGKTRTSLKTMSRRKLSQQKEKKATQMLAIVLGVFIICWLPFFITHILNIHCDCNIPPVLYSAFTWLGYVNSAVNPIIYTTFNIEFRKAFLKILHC
UniProt P30968: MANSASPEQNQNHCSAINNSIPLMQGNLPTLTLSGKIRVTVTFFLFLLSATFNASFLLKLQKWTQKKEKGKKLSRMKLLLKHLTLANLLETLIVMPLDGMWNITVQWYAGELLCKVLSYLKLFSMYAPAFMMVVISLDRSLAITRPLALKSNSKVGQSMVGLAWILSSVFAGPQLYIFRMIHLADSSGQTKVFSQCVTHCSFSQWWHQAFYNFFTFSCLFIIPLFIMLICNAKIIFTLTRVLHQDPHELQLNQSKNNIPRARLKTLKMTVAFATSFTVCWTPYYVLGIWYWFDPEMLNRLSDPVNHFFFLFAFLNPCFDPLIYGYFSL
UniProt Q969F8, whole entry, looked up: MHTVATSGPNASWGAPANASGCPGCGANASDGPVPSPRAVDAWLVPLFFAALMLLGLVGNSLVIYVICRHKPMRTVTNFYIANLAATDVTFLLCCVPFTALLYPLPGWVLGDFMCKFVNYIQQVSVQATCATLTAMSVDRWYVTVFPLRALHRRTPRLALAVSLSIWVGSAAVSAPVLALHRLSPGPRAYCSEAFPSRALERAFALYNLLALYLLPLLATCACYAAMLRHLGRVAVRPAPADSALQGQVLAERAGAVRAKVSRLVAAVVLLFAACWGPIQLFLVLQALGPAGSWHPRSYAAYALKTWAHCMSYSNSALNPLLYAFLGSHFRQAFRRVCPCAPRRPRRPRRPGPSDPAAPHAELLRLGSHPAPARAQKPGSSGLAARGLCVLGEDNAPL
UniProt P28223, whole entry, looked up: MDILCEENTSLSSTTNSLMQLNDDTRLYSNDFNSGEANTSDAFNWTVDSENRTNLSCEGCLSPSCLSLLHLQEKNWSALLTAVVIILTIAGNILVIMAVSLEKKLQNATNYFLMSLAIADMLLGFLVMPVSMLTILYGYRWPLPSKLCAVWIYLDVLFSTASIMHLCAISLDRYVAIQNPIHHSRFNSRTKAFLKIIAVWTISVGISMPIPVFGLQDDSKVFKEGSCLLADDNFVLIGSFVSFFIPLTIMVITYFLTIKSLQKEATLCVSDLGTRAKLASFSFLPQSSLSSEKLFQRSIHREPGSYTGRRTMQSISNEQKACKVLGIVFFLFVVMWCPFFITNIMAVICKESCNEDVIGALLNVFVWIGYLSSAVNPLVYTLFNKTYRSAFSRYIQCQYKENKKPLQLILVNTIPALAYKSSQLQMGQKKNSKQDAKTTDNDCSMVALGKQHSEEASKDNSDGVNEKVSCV

Experiments:
[1] = Nuclear factor erythroid 2-related factor 2/antioxidant responsive element (Nrf2/ARE) small molecule agonists: luciferase reporter gene qHTS assay in human keratinocytes (AID 1919969); details: KeratinoSens HaCaT ARE-luciferase, luminescence, 24 h; activity, positive = activation: at 92.4 µM (top of the series); also: potency is read from the fitted curve at half-maximal effect; nearly all actives have a fitted effect of over 35% in size
[2] = biological target: Beta-2 adrenergic receptor (Homo sapiens) (UniProt P07550); experiment: Adrenergic beta2 receptor (ADRB2) small molecule agonists, cell-based qHTS assay (AID 1963593); details: CHO-ADRB2 cells, cAMP HTRF, 30 min; also: potency is read from the fitted curve at half-maximal effect;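 as to activation: CHO cells stably overexpressing human ADRB2; % is scaled to controls: 0 for no effect and ±100 for the full control effect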
Method in brief: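 CHO cells stably over-expressing ADRB2 were plated overnight at 37C, then dosed with compounds plus a stimulation mix containing 100uM IBMX and 25uM Ro-20-1724 for 0.5hr at room temperature. cAMP was measured by HTRF competition, 1hr.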

[3] = biological target: D(2) dopamine receptor (Homo sapiens) (UniProt P14416); experiment: Dopamine D2 receptor (DRD2) small molecule antagonists, cell-based qHTS assay (AID 1963595; active = well fitted inhibition curve with a large enough effect in the signal ratio in the repeat runs, with a control signal flat; inconclusive = weak or mixed curves, or effect the other way; the % refers to the signal ratio; also: % is scaled to controls: 0 for no effect and ±100 for the full control effect); details: HEK293-DRD2 cAMP HTRF antagonist mode; activity change, negative = inhibition: at 92.4 µM (top of the series) unless noted
Method in brief: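 Antagonist mode in DRD2-HEK293 cells: after compound addition with 0.1 mM Ro20-1724, cells received quinpirole (12 nM) and NKH477 (200 nM) for 30 min at room temperature; HTRF cAMP read after 1 h detection.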

[4] = biological target: Gonadotropin-releasing hormone receptor (Homo sapiens) (UniProt P30968); experiment: Human gonadotropin-releasing hormone receptor (GnRHR) small molecule agonists, calcium flux assay in GnRHR-HEK293 cells (AID 1920063); details: calcium flux fluorescence, agonist mode; activity change: at 57.6 µM (top of the series), hits give high values unless noted; also: nearly all actives have a fitted effect of over 35% in size; also: potency is read from the fitted curve at half-maximal effect
Method in brief: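 Agonist activity was measured as intracellular calcium flux in HEK293 cells engineered to stably express human GnRHR. After dye loading for 1 hour at 37 C, compounds in DMSO were added and fluorescence was followed for 3 minutes.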

[5] = biological target: KiSS-1 receptor (Homo sapiens) (UniProt Q969F8); experiment: Human kisspeptin (KISS1R) small molecule agonists, calcium flux assay in KISS1R-HEK293 cells (AID 1920064; active = well fitted activation curve with a large enough effect in the repeat runs; inconclusive = weak or mixed curves; also: potency is read from the fitted curve at half-maximal effect); details: KISS1R-HEK293, calcium flux fluorescence, agonist; series mostly up to 76.8 µM
Method in brief: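 Agonist activity is monitored as intracellular calcium rise in engineered HEK293 cells carrying human KISS1R. Cells are dye-loaded for 1 h at 37 C before compound addition, and fluorescence is recorded for 3 min.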

[6] = p53 small molecule agonists, cell-based qHTS assay with rat liver microsomes: qHTS cell viability counter screen (AID 1963580); details: p53RE-bla HCT-116 + rat microsomes, ATP viability, 16 h; series mostly up to 66 µM; also: potency is read from the fitted curve at half-maximal effect; nearly all actives have a fitted effect of over 45% in size
Method in brief: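 Cytotoxicity counter screen: intracellular ATP read by CellTiter-Glo luminescence in the p53 reporter wells. HCT-116 p53RE-bla cells were treated for 16 h at 37 C alongside rat liver microsomes and NADPH, each 0.5 mg/mL final.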

[7] = p53 small molecule agonists, cell-based qHTS assay (AID 1963582; active = well fitted activation curve with a large enough effect in the signal ratio in the repeat runs, not every such curve was filed as active; inconclusive = weak or mixed curves; the % refers to the signal ratio; also: potency is read from the fitted curve at half-maximal effect); details: HCT-116 p53RE-bla reporter, beta-lactamase FRET ratio, 16 h; activation: at 66 µM (top of the series) unless noted
Method in brief: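 Cells carrying a p53-responsive bla reporter are treated with test compounds for 16 h at 37 C; beta-lactamase activity is then detected with LiveBLAzer B/G FRET substrate after 2 h at room temperature.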

[8] = cAMP Responsive Elements (CRE) small molecule agonists, cell-based qHTS assay (AID 1963590); details: CRE-bla HEK293T, beta-lactamase FRET ratio, 3 h; activation: at 92.4 µM (top of the series) unless noted; also: potency is read from the fitted curve at half-maximal effect; as to activation: % is scaled to controls: 0 for no effect and ±100 for the full control effect
Method in brief: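 Cells carrying a CRE-driven beta-lactamase reporter (HEK 293T) are seeded, incubated overnight (18 h), and treated with test compounds for 3 h at 37 C; reporter activity is then detected with a FRET substrate after 2 h at room temperature.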

[9] = cAMP Responsive Elements (CRE) small molecule antagonists, cell-based qHTS assay (AID 1963591; active = well fitted inhibition curve with a large enough effect in the signal ratio in the repeat runs, not every such curve was filed as active; inconclusive = weak or mixed curves, or effect the other way; the % refers to the signal ratio; also: % is scaled to controls: 0 for no effect and ±100 for the full control effect); details: CRE-bla HEK293T, beta-lactamase FRET ratio
Method in brief: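 Cells (CRE-bla HEK 293T, DMEM with 10% dialyzed FBS and 25 mM HEPES) are seeded and incubated 18 h. Compounds are added with NKH477 agonist at 0.25 uM final for 3 h, then FRET substrate for 2 h.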

[10] = p53 small molecule agonists, cell-based qHTS assay with human liver microsomes (AID 1963577); details: HCT-116 p53RE-bla with human liver microsomes, ratio, 16 h; activation: at 66 µM (top of the series) unless noted; also: potency is read from the fitted curve at half-maximal effect
Method in brief: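 In this qHTS, p53 response-element beta-lactamase cells receive test compound together with a microsome/NADPH activating system (0.5 mg/mL final each) and are incubated 16 h at 37 C before LiveBLAzer fluorescence detection.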

[11] = biological target: 5-hydroxytryptamine receptor 2A (Homo sapiens) (UniProt P28223); experiment: 5-hydroxytryptamine receptor 2A (HTR2A) small molecule antagonists, cell-based qHTS assay (AID 1963586); details: HTR2A-CHO cells, DOI-induced calcium flux, fluorescence; series mostly up to 61.5 µM; also: potency is read from the fitted curve at half-maximal effect; nearly all actives have a fitted effect of over 45% in size
Method in brief: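 CHO cells stably expressing human HTR2A were plated for 18 h at 37 C, then loaded with calcium dye for 1 h. Compounds were preincubated 5 min at room temperature before DOI (4 nM solution) was added. Kinetic fluorescence was read for 3 min.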

[12] = biological target: 5-hydroxytryptamine receptor 2A (Homo sapiens) (UniProt P28223); experiment: 5-hydroxytryptamine receptor 2A (HTR2A) small molecule agonists, cell-based qHTS assay (AID 1963587); details: HTR2A-CHO cells, calcium flux fluorescence, agonist mode; series mostly up to 76.8 µM; also: % is scaled to controls: 0 for no effect and ±100 for the full control effect; nearly all actives have a fitted effect of over 30% in size
Method in brief: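 Kinetic calcium-flux fluorescence (2 min, 1 sec intervals) after compound addition in agonist mode. HTR2A-CHO cells were cultured 18 h, then dye-loaded 1 h at 37 C.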

[13] = activation: at 92.4 µM (top of the series) unless noted

**Q.** Which Potency [1] does the source give for CC[C@H](C)[C@@H](C(=O)O)n1sc2ccccc2c1=O here?
**A.** active: 54.5 µM

**Q.** What about the Potency [2, 13] of the same compound?
**A.** inconclusive: 77 µM [activator, single point]

**Q.** And the activity change, negative = inhibition [3]?
**A.** inconclusive: -22.3%

**Q.** Which Potency [4] does the source give for O=C1OC2(c3cc(Br)c(O)c(Br)c3Oc3c2cc(Br)c(O)c3Br)c2c(Cl)c(Cl)c(Cl)c(Cl)c21 here?
**A.** active: 39 µM and active: 23.6 µM

**Q.** And the Potency [5]?
**A.** active: 55 µM and active: 33.4 µM

**Q.** What about the Potency [6] of the same compound?
**A.** inconclusive: 0.182 µM [cytotoxic, single point]

**Q.** What about the Potency [7] of the same compound?
**A.** inconclusive: 5.14 µM [rising, partial curve] and inconclusive: 22.1 µM [rising, partial curve]

**Q.** And the Potency [8]?
**A.** inactive

**Q.** What about the activity change, negative = inhibition ([9]; at 42.4 µM (top of the series)) of the same compound?
**A.** inconclusive: -24.1%

**Q.** And the activity change, negative = inhibition ([9]; at 92.4 µM (top of the series))?
**A.** inconclusive: -19.9%

**Q.** And the activation [2, 13]?
**A.** inconclusive: -36.5%

**Q.** What about the activation ([2]; at 42.5 µM (top of the series)) of the same compound?
**A.** inactive: -8.72%

**Q.** Which Potency [4] does the source give for CCCCCC1Nc2cc(C(F)(F)F)c(S(N)(=O)=O)cc2S(=O)(=O)N1 (configuration not stated) here?
**A.** inactive

**Q.** What about the Potency [10] of the same compound?
**A.** inconclusive: 14.1 µM [fluorescent, partial curve]

**Q.** What about the Potency [11] of the same compound?
**A.** inconclusive: 0.183 µM [inhibitor, full curve, poor fit]

**Q.** And the Potency [12]?
**A.** inactive

**Q.** And the Potency [8]?
**A.** inconclusive: 15 µM [rising, partial curve]

**Q.** What about the activity change, negative = inhibition ([9]; activity change, negative = inhibition: at 92.4 µM (top of the series) unless noted) of the same compound?
**A.** inconclusive: 14.9% [at 42.4 µM]

**Q.** And the Potency [2, 13]?
**A.** inactive

**Q.** Which Potency [1] does the source give for CCCCCCCCCCCCCCCCCC(=O)OCC(O)CO (configuration not stated) here?
**A.** inconclusive: 33.5 µM [activator, partial curve, poor fit]

**Q.** And the activation [2, 13]?
**A.** inconclusive: -68.5% [at 42.5 µM] and inconclusive: -17.1% [at 42.5 µM]

**Q.** What about the activity change, negative = inhibition [3] of the same compound?
**A.** inconclusive: -3.93%
